Measured values taken from PubChem BioAssay (EPA / NIEHS).
Inconclusive means that the source gave no clear call. Such entries were picked first, then a sample of the others. Where the call is inconclusive, the potency comes from a doubtful curve fit. Calls of active or inactive are those of the source. The calls were made as follows: active = hit-call score of the fitted dose curve at least 0.9, where 1 is the maximum; inconclusive = response in the unintended direction; inactive = score below 0.9.

assay: IUF_NPC5_oligodendrocyte_differentiation_120hr: Leibniz Research Institute for Environmental Medicine (IUF) 120-hour Oligodendrocyte Differentiation Assay (NPC5) (AID 2284304);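 also: primary human fetal neural progenitor spheres plated to migrate and differentiate; share of O4-positive cells among Hoechst nuclei found by CNN image analysis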
Method in brief: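 Human primary NPC neurospheres migrating and differentiating on laminin for 120 h under continuous compound exposure (serial dilution, solvent control). Endpoint: percent O4+ oligodendrocytes among Hoechst nuclei, detected by CNN image analysis, with DMSO as negative control.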

Row | Compound | outcome | AC50
1 | CC1(C)C(C=C(Cl)Cl)C1C(=O)OC(C#N)c1cccc(Oc2ccccc2)c1 (stereo not given) | inactive | 
2 | C=CC1(C)OC(=O)N(c2cc(Cl)cc(Cl)c2)C1=O (stereo not given) | inactive | 
3 | CC(C)(C)c1ccc(CSc2cnn(C(C)(C)C)c(=O)c2Cl)cc1 |  | active: 0.0866 µM
4 | CNC(=O)Oc1cccc2ccccc12 |  | inconclusive: 16.7 µM
5 | CCC(C)(C)C(=O)OC1=C(c2ccc(Cl)cc2Cl)C(=O)OC12CCCCC2 |  | inconclusive: 10 µM
6 | CC1(C)C(C=C(Cl)Cl)C1C(=O)OC(C#N)c1ccc(F)c(Oc2ccccc2)c1 (stereo not given) |  | active: 0.227 µM
7 | CO/C=C(/C(=O)OC)c1ccccc1Oc1cc(Oc2ccccc2C#N)ncn1 | inactive | 
8 | CNC(=O)ON=CC(C)(C)SC | inactive | 
9 | CSC1=N[C@@](C)(c2ccccc2)C(=O)N1Nc1ccccc1 |  | inconclusive: 10 µM
10 | CS(=O)(=O)c1ccc(C(=O)C2C(=O)CCCC2=O)c([N+](=O)[O-])c1 |  | inconclusive: 9.93 µM

assay: IUF_NPC4_neurite_area_120hr: Leibniz Research Institute for Environmental Medicine (IUF) 120-hour Neuronal Morphology Assay for Neurite Area (NPC4) (AID 2284305)
Method in brief: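 Neurite area is read out as the mean pixel area, excluding nuclei, of skeletonized TUBB3-positive neurons imaged after 120 h. Primary human neural progenitor spheres differentiated on poly-D-lysine/laminin with compound present from day 0. Activity was referenced to DMSO controls.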

Row | Compound | outcome | AC50
11 | Cc1c(COC(=O)[C@@H]2[C@H](/C=C(\Cl)C(F)(F)F)C2(C)C)cccc1-c1ccccc1 | inactive | 
12 | CN/C(=N\[N+](=O)[O-])NCc1cnc(Cl)s1 |  | active: 10 µM
13 | C=CC1(C)OC(=O)N(c2cc(Cl)cc(Cl)c2)C1=O (stereo not given) |  | inconclusive: 1.87 µM
14 | COP(=S)(OC)Oc1nc(Cl)c(Cl)cc1Cl |  | inconclusive: 0.00274 µM
15 | CS(=O)(=O)c1ccc(C(=O)C2C(=O)CCCC2=O)c([N+](=O)[O-])c1 |  | inconclusive: 0.315 µM
